Measured values reported in PubChem BioAssay AID588590 (National Center for Advancing Translational Sciences (NCATS), 2011).
The campaign covered roughly 390,000 compounds. About 4,000 (1%) were called active. Inconclusive results, whose numbers are uncertain, are shown with a selection of clear calls. The call rests on the fitted dose curve; in most records, active means well fitted inhibition curve with a large enough effect; inconclusive means small, poorly fitted or top-dose-only effect, or another doubt; inactive means no such curve, though single readings can be large or run the other way. Potencies beside an inconclusive call are fits to weak or partial responses and may not hold up.

Protein sequences, listed by entry. Tags and fused reporters are not part of them. Lines headed by an entry give the natural chain unless they say otherwise; changes in a name come on top.
UniProt Q9UNA4: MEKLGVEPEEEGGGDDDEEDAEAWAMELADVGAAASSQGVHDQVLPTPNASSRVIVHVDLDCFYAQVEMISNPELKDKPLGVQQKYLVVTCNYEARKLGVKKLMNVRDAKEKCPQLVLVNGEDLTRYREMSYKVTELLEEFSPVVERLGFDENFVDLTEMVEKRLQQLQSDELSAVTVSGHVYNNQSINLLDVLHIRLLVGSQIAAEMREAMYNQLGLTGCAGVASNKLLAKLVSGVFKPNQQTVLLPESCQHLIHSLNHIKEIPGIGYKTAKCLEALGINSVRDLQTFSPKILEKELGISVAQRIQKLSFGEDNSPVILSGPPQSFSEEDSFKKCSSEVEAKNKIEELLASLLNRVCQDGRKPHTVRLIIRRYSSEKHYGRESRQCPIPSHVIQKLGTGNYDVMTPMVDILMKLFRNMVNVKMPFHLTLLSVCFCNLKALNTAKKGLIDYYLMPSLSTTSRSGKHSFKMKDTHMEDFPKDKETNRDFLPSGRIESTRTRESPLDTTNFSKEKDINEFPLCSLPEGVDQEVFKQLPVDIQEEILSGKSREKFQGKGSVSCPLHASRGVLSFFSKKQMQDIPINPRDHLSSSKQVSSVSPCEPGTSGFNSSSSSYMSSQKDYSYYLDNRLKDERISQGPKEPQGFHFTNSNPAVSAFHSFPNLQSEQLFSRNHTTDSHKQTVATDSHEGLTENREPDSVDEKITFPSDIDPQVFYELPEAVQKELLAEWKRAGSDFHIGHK

The compounds below were run against DNA polymerase iota (Homo sapiens) (UniProt Q9UNA4) (assay: qHTS for Inhibitors of Polymerase Iota). Settings: Pol iota fluorescent replication assay, 10 min; series mostly up to 115 µM.
In short: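 Fluorescent replication assay read twice, at 0 min and 10 min after adding 50 nM (final) substrate. Enzyme (10 nM) and compounds were first incubated 15 min at room temperature; enzyme-free buffer wells were negative controls.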
Potency means the concentration at half of the fitted maximal effect.

Structure (SMILES)	Potency
Cc1cc(C(=O)CN2c3cccc4cccc(c34)S2(=O)=O)c(C)n1C	inconclusive: 50.1 µM [inhibitor, single point]
COCCNC(=O)c1c[nH]n2c(=O)cc(C3CCN(C(=O)OC(C)(C)C)CC3)nc12	inactive
CC(=O)Nc1ccc(NC(=O)Cn2c(=O)n(-c3ccc(C)cc3)c(=O)c3oc4ccccc4c32)cc1	inactive
CC(=O)c1cccc(NC(=O)COc2ccccc2C(=O)Nc2ccccc2)c1	inactive
CC1=C(C)CC(C(=O)N2CCN(Cc3ccccc3)CC2)C(C(=O)O)C1 (centres undefined)	inconclusive: 39.8 µM [inhibitor, single point]
COc1cccc(Nc2sc(C(=O)c3ccc4c(c3)OCO4)c(N)c2S(=O)(=O)c2ccccc2)c1	inconclusive: 89.1 µM [inhibitor, partial curve, poor fit]
Cc1c(NC(=O)CSc2ccc(Cl)cc2)cccc1-c1nc2ncccc2o1	inconclusive: 56.2 µM [inhibitor, partial curve, poor fit]
C1=CC2c3ccccc3NC(c3ccncc3)C2C1 (centres undefined)	inconclusive: 17.8 µM [inhibitor, partial curve, poor fit]
O=C(NCCc1nc2ccccc2n1CCCOc1ccccc1Cl)C1CCCCC1	inactive
Cn1c(SCC(=O)NCC2CCCO2)nnc1-c1ccc(Cl)cc1 (centres undefined)	inconclusive: 0.631 µM [inhibitor, full curve, poor fit]
COc1cc(/C=C2/C(=O)N(c3ccc(C)c(C)c3)N=C2C)cc([N+](=O)[O-])c1O	inactive
Cc1cc2ccccn2c1C(=O)c1ccc(N/N=C/c2ccc(C(=O)O)cc2)c([N+](=O)[O-])c1	inconclusive: 1.26 µM [inhibitor, full curve, poor fit]
CSc1ccc(CNC(=O)Cc2csc3ccccc23)cc1	inconclusive: 79.4 µM [inhibitor, partial curve]
CC(C)(C)NC(=O)C(c1cccs1)N(Cc1cccs1)C(=O)c1csnn1 (centres undefined)	inactive
CC(C)(C)[C@H]1COC(=O)[C@H](NC(=O)OCC2c3ccccc3-c3ccccc32)C/C=C\C[C@@H](CC(=O)N[C@@H](CO)Cc2ccccc2)C(=O)N1	inactive
CCC(=O)NC(Nc1nc2ccc(C)cc2s1)(C(=O)OC)C(F)(F)F (centres undefined)	inconclusive: 100 µM [inhibitor, single point]
Cc1cccc2c1NC(=O)C2=O	active: 8.91 µM
CCOC(=O)c1cc(=O)n2nc(-c3ccc(C)cc3)nc2s1	inconclusive: 0.891 µM [inhibitor, full curve, poor fit]
O=C(NN(C(=O)c1ccccc1)c1ccccc1)c1ccccc1	inconclusive: 25.1 µM [inhibitor, full curve, poor fit]
CC(/C=C/c1ccco1)=N\NC(=O)c1cc(Cl)ccc1O	active: 39.8 µM
CCOC(=O)c1ccc(NC(=O)c2cccc(S(=O)(=O)N3CCN(C(C)=O)CC3)c2)cc1	inactive
Cc1ccc(NC(=O)CN2c3ccccc3S(=O)(=O)c3ccccc32)cc1F	inactive
CN(Cc1ccccc1)Cc1c(O)ccc2c(=O)c(-c3ccccc3)c(C(F)(F)F)oc12	inconclusive: 100 µM [inhibitor, partial curve, poor fit]

Structure (SMILES)	Potency
COc1ccc(CCNC(=O)Cn2c(=O)n(-c3ccc(OC)c(OC)c3)c(=O)c3ccccc32)cc1OC	inconclusive: 89.1 µM [inhibitor, single point]
COc1ccc(-c2cc(C#N)nc(Oc3ccc(Cl)cc3)n2)cc1	inconclusive: 100 µM [inhibitor, partial curve, poor fit]
O=C(O)c1ccc(NS(=O)(=O)c2cc(Cl)sc2Cl)cc1	inactive
Cc1ccccc1C(=O)Oc1cc(-c2ccc3c(c2)OCO3)cc(=O)c2c(C)oc(C)c12	inconclusive: 89.1 µM [inhibitor, single point]
Cc1ccccc1-n1c(=O)cc(N2CCc3ccccc3C2)[nH]c1=O	inconclusive: 31.6 µM [inhibitor, single point]
Cc1ccc(OCC(=O)c2c(N)n(C)c(=O)n(C)c2=O)c([N+](=O)[O-])n1	active: 10 µM
O=C(Nc1ccc2c(c1)OCCO2)C1CCCN1S(=O)(=O)c1cccc2cccnc12 (centres undefined)	inconclusive: 25.1 µM [inhibitor, single point]
CC(C)(C)NCC(O)Cn1cc(C=O)c2ccccc21 (centres undefined)	inconclusive: 5.01 µM [inhibitor, full curve, poor fit]
O=C(C1Cc2ccccc2CN1C(=O)c1ccccc1)N1CCN(c2ccccc2)CC1 (centres undefined)	inconclusive: 25.1 µM [inhibitor, full curve]
Cc1cc(C)cc(OCC(O)CN2CCN(C(=O)c3ccco3)CC2)c1 (centres undefined)	inconclusive: 35.5 µM [inhibitor, partial curve, poor fit]
COc1ccc(-n2c(=O)c3c4c(sc3n(CC(=O)N3CCCCC3C)c2=O)CCC4)c(OC)c1 (centres undefined)	inactive
CC(C)CNS(=O)(=O)c1ccc(S(=O)(=O)N2CCN(C3CCCC3)CC2)cc1	inactive
O=C1C=C(N2CCOCC2)c2ccccc2C1=O	active: 1.78 µM
CS(=O)(=O)c1ccc(/C=C2\C=Cc3ccccc32)cc1	inactive
COCCSc1ccccc1C(=O)N1CCCC1	inconclusive: 112 µM [inhibitor, single point]
COc1cccc(OCc2cc(C(=O)N3CCN(c4ccccc4O)CC3)no2)c1	inconclusive: 89.1 µM [inhibitor, single point]
Clc1ccc(-c2nnc3sc(-c4ccc(Br)o4)nn23)cc1	active: 89.1 µM
CSc1nc2ccc(S(=O)(=O)N3CCCCC3)cc2s1	inconclusive: 89.1 µM [inhibitor, partial curve, poor fit]
Cc1cc2nccc(/C=C/c3ccc(N(C)C)cc3)c2cc1C	inconclusive: 11.2 µM [inhibitor, partial curve]
Cc1ccc(OCC(=O)N(Cc2ccc(Cl)cc2)Cc2ccco2)cc1C	inactive
Cc1ccc(CN2[C@@H](CC(C)C)COCCS2(=O)=O)cc1	inconclusive: 11.2 µM [inhibitor, partial curve, poor fit]
Cc1cc(C)c2c(CN3CCCCC3)cc(=O)oc2c1	inactive
CCN(CC)CCNC(=O)Cn1nc(Cc2ccccc2)c2ccccc2c1=O	inconclusive: 39.8 µM [inhibitor, single point]

4 entries picked at random from those above:
Structure (SMILES)	Potency
O=C(C1Cc2ccccc2CN1C(=O)c1ccccc1)N1CCN(c2ccccc2)CC1 (centres undefined)	inconclusive: 25.1 µM [inhibitor, full curve]
O=C(Nc1ccc2c(c1)OCCO2)C1CCCN1S(=O)(=O)c1cccc2cccnc12 (centres undefined)	inconclusive: 25.1 µM [inhibitor, single point]
O=C(O)c1ccc(NS(=O)(=O)c2cc(Cl)sc2Cl)cc1	inactive
Cc1ccc(OCC(=O)c2c(N)n(C)c(=O)n(C)c2=O)c([N+](=O)[O-])n1	active: 10 µM

Following part.

Structure (SMILES)	Potency
Cc1cc(C)cc(NC(=O)c2cc(C)nc3c2c(C)nn3-c2ccccc2)c1	inactive
CC(C)CCNc1nc2c(cc1C#N)COC(C)(C)C2	inconclusive: 20 µM [inhibitor, partial curve]
COc1ccc(CCNC(=O)CSc2nnnn2C)cc1OC	inconclusive: 28.2 µM [inhibitor, single point]
Cc1ccccc1Nc1cc(C(=O)NC2CCCC2)c2ccccc2n1	inactive
Cc1occc1C(=O)N/N=C/c1ccc(-c2ccccc2)cc1	inactive
CC(=O)C1=C(O)C(=O)N(c2ccc(C)cc2)C1c1ccccn1 (centres undefined)	inconclusive: 14.1 µM [inhibitor, partial curve, poor fit]
CCOc1cc(CO)cc(Br)c1OCC(=O)O	inconclusive: 17.8 µM [inhibitor, full curve]
CCn1c(C)cc(/C=C2\NC(=O)N(Cc3ccccc3)C2=O)c1C	inconclusive: 31.6 µM [inhibitor, single point]
O=C(/C=C/c1ccco1)Nc1ccc2nc3n(c(=O)c2c1)CCCC3	active: 70.8 µM
Cc1c(/C=C2\SC(=O)N(CC(=O)Nc3ccc4c(c3)OCO4)C2=O)c2ccccc2n1C	inconclusive: 31.6 µM [inhibitor, full curve, poor fit]
COc1cc(/C=C2\SC(c3ccc(C)cc3)=NC2=O)cc(OC)c1O	inconclusive: 28.2 µM [inhibitor, single point]
O=c1[nH]c(/C=C/c2ccccc2Cl)nc2ccccc12	inconclusive: 7.94 µM [inhibitor, partial curve]
Cc1nc(N2CCCC2)c2c(C(=O)N3CCN(c4ccc(F)cc4)CC3)c(C)oc2n1	inconclusive: 89.1 µM [inhibitor, single point]
Cc1ccc(C(=O)CCS(=O)(=O)c2ccc(F)cc2)cc1	inconclusive: 25.1 µM [inhibitor, partial curve, poor fit]
Cc1cc(C)c(NC(=O)CCN2C(=O)c3ccccc3Sc3ncccc32)c(C)c1	inactive
Cc1ccc(/C=C2\SC(=S)N(CC3CCCO3)C2=O)o1 (centres undefined)	inconclusive: 22.4 µM [inhibitor, full curve, poor fit]
CCOc1ccc(C(=O)NCc2nnnn2-c2ccc(C)c(C)c2)cc1OCC	inactive
Cc1cccc(C(=O)Nc2nnc(S(=O)(=O)N(C)Cc3ccc(Cl)cc3)s2)c1	active: 89.1 µM
CS(=O)(=O)N1CCN(C(=O)C2c3ccccc3Oc3ccccc32)CC1	inconclusive: 89.1 µM [inhibitor, single point]
CCc1nc(Nc2ccc(F)c(Cl)c2)c2c3c(sc2n1)CCCC3	inactive
Cc1cccc(C)c1NC(=O)Cn1cc(C(=O)c2ccco2)c2ccccc21	active: 79.4 µM
O=C(Cn1ncc2c3ccccc3n(Cc3cccc(Cl)c3)c2c1=O)NCCCc1ccccc1	inconclusive: 89.1 µM [inhibitor, partial curve, poor fit]
COc1cc(NC(=O)c2[nH]cnc2C(N)=O)cc(C(=O)Nc2cccc(C(F)(F)F)c2)c1	inconclusive: 79.4 µM [inhibitor, single point]

Shown field by field: part of the list above
CS(=O)(=O)N1CCN(C(=O)C2c3ccccc3Oc3ccccc32)CC1
  Potency: inconclusive: 89.1 µM [inhibitor, single point]
CCc1nc(Nc2ccc(F)c(Cl)c2)c2c3c(sc2n1)CCCC3
  Potency: inactive
